Laboratory results as given in PMC7819943, “Rice protein-binding microarrays: a tool to detect cis-acting elements near promoter regions in rice”.
The other results are listed elsewhere or left out.

Amino acid sequences for entries named in this document (tags omitted).
UniProt Q0JBA9, entry or part of it: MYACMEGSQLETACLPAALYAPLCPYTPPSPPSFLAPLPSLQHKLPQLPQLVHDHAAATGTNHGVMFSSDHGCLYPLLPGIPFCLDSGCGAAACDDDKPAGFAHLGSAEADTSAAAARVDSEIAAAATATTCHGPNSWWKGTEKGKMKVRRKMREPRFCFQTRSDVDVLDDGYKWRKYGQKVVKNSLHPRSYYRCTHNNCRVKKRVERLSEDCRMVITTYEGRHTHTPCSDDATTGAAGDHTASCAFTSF

biological target: OsWRKY34 (Oryza sativa, UniProt Q0JBA9 1-250); assay: protein-binding microarray (RPBM); PBS, 2% BSA, 51.3 ng/ul salmon testes DNA, 50 uM zinc acetate, 200 nM TF, 25 C, 1 h; high values mean tight binding; conditions: protein: recombinant; tags: N-terminal polyhistidine and DsRed monomer fusion (pET32a); label: CyDye5-dUTP incorporated in the synthesized complementary strand; 3' TTTTT single-stranded linker to array surface; dsDNA, one strand shown
Method in brief: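 Transcription factors were each fused at the N-terminus to a polyhistidine tag plus DsRed and expressed in E. coli BL21-CodonPlus before Ni–NTA purification. Binding to a double-stranded custom Agilent array was carried out with 200 nM protein at 25 °C for 1 h in PBS, 2% BSA, salmon testes DNA and 50 µM zinc acetate. The binding signal is per-feature fluorescence intensity, in arbitrary units, on an Axon 4000B scanner.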

Row | Sequence | binding signal
1 | GCTGCTGCTGCCTCGTTTGACCTACCGTTTCTTTAATCTGCGGAGTCACCTAGTGCAG | 9590 fluorescence intensity (a.u.)
2 | CCGGCAGCTTCCACTACCTGCAGACCCACCACTTCGCCTACGGAGTCACCTAGTGCAG | 13500 fluorescence intensity (a.u.)
3 | TCTCTTTGGTTGAGGTCTGGGCCTTTGTGCTGCTCTGTAACGGAGTCACCTAGTGCAG | 11000 fluorescence intensity (a.u.)
4 | CTAGGTGTGCTTTTGTTTTGTTTTTTTGCGCGCCACTTTTCGGAGTCACCTAGTGCAG | 16300 fluorescence intensity (a.u.)
5 | CATGAGACGCGTGTTGCCATTGCTATGTCCGGTTCCAGCCCGGAGTCACCTAGTGCAG | 8870 fluorescence intensity (a.u.)
6 | CCATTGGAACGTTCTTGCCACGCGTTTTTTTATTTTTTTTCGGAGTCACCTAGTGCAG | 15300 fluorescence intensity (a.u.)
7 | TCCATCCATGCATTCTCCAACTGGACAGTGTAATATTTTCCGGAGTCACCTAGTGCAG | 10100 fluorescence intensity (a.u.)
8 | ACGAATTTCTCCCTTACCACACGACAATTTCCCCGTCTCTCGGAGTCACCTAGTGCAG | 11100 fluorescence intensity (a.u.)
9 | AGTTACCGTTCTAGTCAGGGGCGGATCCAGCGTGGGGCGGCGGAGTCACCTAGTGCAG | 12600 fluorescence intensity (a.u.)
10 | TATTTCCGACACAGGGCGGGGATTTTTTTTTTGGAAACAACGGAGTCACCTAGTGCAG | 14800 fluorescence intensity (a.u.)
11 | CCAATTTTGACCGATTCCCTGTGTATGTTCCCTCCCATATCGGAGTCACCTAGTGCAG | 9200 fluorescence intensity (a.u.)
12 | TTCTGTTCATTAGTAGTACTCTGCTTGGCGGCTTCCTTTTCGGAGTCACCTAGTGCAG | 8850 fluorescence intensity (a.u.)
13 | CTTCCTCGTTTTTGCAAAATCCCTCTCACCCAGCAATCCGCGGAGTCACCTAGTGCAG | 8360 fluorescence intensity (a.u.)
14 | ATTTTCTTTACCAGCTGTACAGTTTTATATTCATTTTTTTCGGAGTCACCTAGTGCAG | 12800 fluorescence intensity (a.u.)
15 | GGTCGGCGGCGGCGGGTTGGTGGCGGACGCGGCGGATCTGCGGAGTCACCTAGTGCAG | 8020 fluorescence intensity (a.u.)
16 | GGTCGCTTTACCTCCCCTGCCTGAACACTCTATGCTGCAGCGGAGTCACCTAGTGCAG | 8370 fluorescence intensity (a.u.)
17 | GATAGAGTTAGGGCATTTGAGATTGTTGGAAGTGGTGTGACGGAGTCACCTAGTGCAG | 8030 fluorescence intensity (a.u.)
18 | ACATATATGATTCCAGTCACATTTAATTTTCCTTTTACAGCGGAGTCACCTAGTGCAG | 8300 fluorescence intensity (a.u.)
19 | AACGGTCATCGGTCATCGCACGTTGTCTCGTTTATGAACTCGGAGTCACCTAGTGCAG | 9230 fluorescence intensity (a.u.)
20 | TGTTTTTTTCCTCTTTCAAGGCGATTTGTCATGTTTCTGTCGGAGTCACCTAGTGCAG | 14800 fluorescence intensity (a.u.)
21 | ACTATTGTCATCTTACATGGACTCACCTTATTATCTACTTCGGAGTCACCTAGTGCAG | 9150 fluorescence intensity (a.u.)

Row | Sequence | binding signal
22 | TTTGTCCAGTCCTTTCACACAATTCCTTCGTGTGATCTGCCGGAGTCACCTAGTGCAG | 8790 fluorescence intensity (a.u.)
23 | GCTAGCTCTCTCAAACCATCTCTCTCTTTCTTTCTGTGACCGGAGTCACCTAGTGCAG | 8340 fluorescence intensity (a.u.)
24 | CCGTCAGCGTTGTCTTCCCCATGCTTCCCTAGCATCGGTTCGGAGTCACCTAGTGCAG | 9080 fluorescence intensity (a.u.)
25 | CGGTCGTTGATCTTATTCATCATAATCACACCAGTACAATCGGAGTCACCTAGTGCAG | 11100 fluorescence intensity (a.u.)
26 | ACCAACTCTTCTCGCCCTAATCCATTTCTGAACTAAATTACGGAGTCACCTAGTGCAG | 8530 fluorescence intensity (a.u.)
27 | TAGCAGTGCCACCTTTTTCTGTCCGCTGTTGAGCTTGTGCCGGAGTCACCTAGTGCAG | 9400 fluorescence intensity (a.u.)
28 | GTGCTTTACTGCCTGGATTACTGCATCTACTTTTTTGTTACGGAGTCACCTAGTGCAG | 10900 fluorescence intensity (a.u.)
29 | CTCTGTCGCCGGCCTCTCCAGCGCCCCTGCGTTATCCCTCCGGAGTCACCTAGTGCAG | 8420 fluorescence intensity (a.u.)
30 | GCCCGCCATCTCCTCGCCTCGCCGTCGAAGGCCCGCAATGCGGAGTCACCTAGTGCAG | 8870 fluorescence intensity (a.u.)
31 | ATTATATATACTATGCTCAAATTTGTACTAATTGGTTTGACGGAGTCACCTAGTGCAG | 8440 fluorescence intensity (a.u.)
32 | CTCTCTCACACACACACTCTCACTCTTCTCTTATCCTCTCCGGAGTCACCTAGTGCAG | 13300 fluorescence intensity (a.u.)
33 | GTAACCGTCTCATCTTTGTCTTCCGTAAAAAAATGATCATCGGAGTCACCTAGTGCAG | 9470 fluorescence intensity (a.u.)
34 | CTCGTCTCCTCCGCCTCGCGACTTCGCCTCGCCGGCGCCGCGGAGTCACCTAGTGCAG | 8280 fluorescence intensity (a.u.)
35 | AACCTCTTGGAACATTTCCTCTAAGTCTATCTCTCTCATCCGGAGTCACCTAGTGCAG | 9100 fluorescence intensity (a.u.)
36 | CGTCTGCCCATCCGTTTTACGCTCGTCCGCGACCGCCGCCCGGAGTCACCTAGTGCAG | 10700 fluorescence intensity (a.u.)
37 | AGCCTATAGTCTCTTTATCCCTTTCTCGGTCAAATAGTGCCGGAGTCACCTAGTGCAG | 8600 fluorescence intensity (a.u.)
38 | TTCTGCTGATATTTGCTCTTCTTCTGTCATATCACCTTGCCGGAGTCACCTAGTGCAG | 13700 fluorescence intensity (a.u.)
39 | CCCGAGCACGCACACTCGCCGCCGCACTCCACTTCCCCAACGGAGTCACCTAGTGCAG | 9590 fluorescence intensity (a.u.)
40 | CGAGCTATCCTGCGCCGGCCTCTATATATCACCTCGAGCTCGGAGTCACCTAGTGCAG | 9680 fluorescence intensity (a.u.)
41 | GGTTTTACCGCAACCGCCTAGACACATCGCGTACTATCTCCGGAGTCACCTAGTGCAG | 9110 fluorescence intensity (a.u.)
42 | AAAAAAAAAAGTCAAACCTGGTTTCCTACCAACGTTTGACCGGAGTCACCTAGTGCAG | 9420 fluorescence intensity (a.u.)

Three entries from above, reformatted.

| Row | Sequence | binding signal |
| --- | --- | --- |
| 30 | GCCCGCCATCTCCTCGCCTCGCCGTCGAAGGCCCGCAATGCGGAGTCACCTAGTGCAG | 8870 fluorescence intensity (a.u.) |
| 32 | CTCTCTCACACACACACTCTCACTCTTCTCTTATCCTCTCCGGAGTCACCTAGTGCAG | 13300 fluorescence intensity (a.u.) |
| 42 | AAAAAAAAAAGTCAAACCTGGTTTCCTACCAACGTTTGACCGGAGTCACCTAGTGCAG | 9420 fluorescence intensity (a.u.) |
